Among the data in article PMC11220700, “Activation and Purification of ß‐Glucocerebrosidase by Exploiting its Transporter LIMP‐2 – Implications for Novel Treatment Strategies in Gaucher's and Parkinson's Disease” (Advanced Science, 2024) are binding values, retold here.

Experiment [1] has as its target T1, soluble LIMP‐2 (sLIMP‐2), secreted LIMP‐2 ectodomain (human) (UniProt Q14108).
T1 sequence: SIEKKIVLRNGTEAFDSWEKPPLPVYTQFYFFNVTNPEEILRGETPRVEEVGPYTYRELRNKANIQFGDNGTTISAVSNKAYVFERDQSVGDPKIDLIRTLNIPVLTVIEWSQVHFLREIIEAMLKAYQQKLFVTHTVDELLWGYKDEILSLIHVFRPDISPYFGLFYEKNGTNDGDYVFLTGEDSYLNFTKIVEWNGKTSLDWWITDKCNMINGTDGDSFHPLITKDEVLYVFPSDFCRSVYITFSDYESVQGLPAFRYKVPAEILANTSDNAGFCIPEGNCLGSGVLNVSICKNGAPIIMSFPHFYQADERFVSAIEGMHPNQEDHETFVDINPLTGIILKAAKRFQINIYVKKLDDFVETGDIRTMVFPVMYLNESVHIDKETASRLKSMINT
As to the kind of experiment: SEC; Ni-NTA eluate (co-expressed, co-purified sLIMP-2/GCase, or sLIMP-2 alone) on Superdex 200 Increase 3.2/300 in 25 mM HEPES, 150 mM NaCl, pH 6.5; UV280, western blot and activity of fractions; both purified.

The target in experiment [2] is T1, soluble LIMP‐2 (sLIMP‐2), secreted LIMP‐2 ectodomain (human). As to the kind of experiment: pull-down; Ni-NTA beads in conditioned medium of HEK 293F cells expressing His-tagged sLIMP-2 with untagged GCase (96 h); overnight at 4 °C; wash with 20 mM imidazole, elution with 400 mM imidazole, pH 8.0; western blot. Background: In western blotting, separated proteins are transferred to a membrane and probed.

Results are given in words; binding and its absence hold for the method and conditions named. For part of these data: Binding seen in cells or lysates may run through a third protein. Some entries that bind do so weakly or less than the wild type. For part of these data: Where a sequence is shown, tags or fusion partners need not be part of it.

B1: soluble LIMP‐2 (sLIMP‐2), secreted LIMP‐2 ectodomain (domain or fragment, UniProt Q14108 36-431)
chain: SIEKKIVLRNGTEAFDSWEKPPLPVYTQFYFFNVTNPEEILRGETPRVEEVGPYTYRELRNKANIQFGDNGTTISAVSNKAYVFERDQSVGDPKIDLIRTLNIPVLTVIEWSQVHFLREIIEAMLKAYQQKLFVTHTVDELLWGYKDEILSLIHVFRPDISPYFGLFYEKNGTNDGDYVFLTGEDSYLNFTKIVEWNGKTSLDWWITDKCNMINGTDGDSFHPLITKDEVLYVFPSDFCRSVYITFSDYESVQGLPAFRYKVPAEILANTSDNAGFCIPEGNCLGSGVLNVSICKNGAPIIMSFPHFYQADERFVSAIEGMHPNQEDHETFVDINPLTGIILKAAKRFQINIYVKKLDDFVETGDIRTMVFPVMYLNESVHIDKETASRLKSMINT
As to B1, the binding result in experiment [1] is reported as “no binding”.

B2: endogenous GCase of HEK 293F cells (enzyme, UniProt P04062-1 40-536)
chain: ARPCIPKSFGYSSVVCVCNATYCDSFDPPTFPALGTFSRYESTRSGRRMELSMGPIQANHTGTGLLLTLQPEQKFQKVKGFGGAMTDAAALNILALSPPAQNLLLKSYFSEEGIGYNIIRVPMASCDFSIRTYTYADTPDDFQLHNFSLPEEDTKLKIPLIHRALQLAQRPVSLLASPWTSPTWLKTNGAVNGKGSLKGQPGDIYHQTWARYFVKFLDAYAEHKLQFWAVTAENEPSAGLLSGYPFQCLGFTPEHQRDFIARDLGPTLANSTHHNVRLLMLDDQRLLLPHWAKVVLTDPEAAKYVHGIAVHWYLDFLAPAKATLGETHRLFPNTMLFASEACVGSKFWEQSVRLGSWDRGMQYSHSIITNLLYHVVGWTDWNLALNPEGGPNWVRNFVDSPIIVDITKDTFYKQPMFYHLGHFSKFIPEGSQRVGLVASQKNDLDAVALMHPDGSAVVVVLNRSSKDVPLTIKDPAVGFLETISPGYSIHTYLWRRQ
For the molecule B2, the binding entry in experiment [2] is reported as “binds”.

B3: untagged GCase L444P (enzyme, UniProt P04062-1 40-536)
chain: ARPCIPKSFGYSSVVCVCNATYCDSFDPPTFPALGTFSRYESTRSGRRMELSMGPIQANHTGTGLLLTLQPEQKFQKVKGFGGAMTDAAALNILALSPPAQNLLLKSYFSEEGIGYNIIRVPMASCDFSIRTYTYADTPDDFQLHNFSLPEEDTKLKIPLIHRALQLAQRPVSLLASPWTSPTWLKTNGAVNGKGSLKGQPGDIYHQTWARYFVKFLDAYAEHKLQFWAVTAENEPSAGLLSGYPFQCLGFTPEHQRDFIARDLGPTLANSTHHNVRLLMLDDQRLLLPHWAKVVLTDPEAAKYVHGIAVHWYLDFLAPAKATLGETHRLFPNTMLFASEACVGSKFWEQSVRLGSWDRGMQYSHSIITNLLYHVVGWTDWNLALNPEGGPNWVRNFVDSPIIVDITKDTFYKQPMFYHLGHFSKFIPEGSQRVGLVASQKNDPDAVALMHPDGSAVVVVLNRSSKDVPLTIKDPAVGFLETISPGYSIHTYLWRRQ
In the case of B3, the binding entry in experiment [2] is recorded as “binds weakly”.
